Data taken from PubChem BioAssay AID330 (DTP/NCI, 2004).
The list is a part of this screen's results and no random one: it gathers tests that were run many times, whatever their T/C, doses with no T/C, and many T/C values between a quarter and a half above the control. Further doses and runs are listed elsewhere. T/C gives the treated animals as a percentage of the vehicle group. Some doses have a count of surviving animals in place of a T/C: the source holds a T/C of zero for them, seemingly a mark for toxic or unscored doses. Some doses without a T/C left all or most animals alive at the check, yet need not have been tolerated: survival well below the control is almost never listed, so the zero probably covers shortened survival too. Counts of survivors are from the toxicity check (mostly the fifth day) where no day follows; animals may have died later. Schedules are NCI's codes, taken here to give the interval after Q, in days (D) or hours (H), and the number of doses after X. Where survival is the endpoint, this PubChem deposit counts one and a half times the control or more as active, and values a quarter to a half above the control carry no call in these data; other NCI protocols may use other cut-offs. Some doses were run more than once; their values stand side by side, smallest first.

Test system: P388 leukemia ip, CD2F1 mice, survival T/C
Assay: NCI In Vivo Anticancer Drug Screen. Data for tumor model P388 Leukemia (intraperitoneal) in CD2F1 (CDF1) mice
Settings: T/C endpoint: median survival time, higher T/C = longer survival
[1] = dose: 200.0 mg/kg/injection, schedule: Q01DX005 (ip), vehicle: Klucel (hydroxypropylcellulose) (HPC)
[2] = dose: 50.0 mg/kg/injection, schedule: Q01DX009 (ip), vehicle: saline
[3] = dose: 100.0 mg/kg/injection, schedule: Q01DX009 (ip), vehicle: saline
[4] = dose: 200.0 mg/kg/injection, schedule: Q01DX009 (ip), vehicle: saline
[5] = dose: 120.0 mg/kg/injection, schedule: Q01DX005 (ip), vehicle: Klucel (hydroxypropylcellulose) (HPC)
[6] = dose: 240.0 mg/kg/injection, schedule: Q01DX005 (ip), vehicle: Klucel (hydroxypropylcellulose) (HPC)
[7] = dose: 200.0 mg/kg/injection, schedule: Q01DX005 (ip), vehicle: saline with Tween-80
[8] = dose: 50.0 mg/kg/injection, schedule: Q01DX005 (ip), vehicle: Klucel (hydroxypropylcellulose) (HPC)
[9] = dose: 200.0 mg/kg/injection, schedule: Q01DX009 (ip), vehicle: saline with Tween-80
[10] = dose: 100.0 mg/kg/injection, schedule: Q01DX009 (ip), vehicle: other
[11] = dose: 200.0 mg/kg/injection, schedule: Q01DX009 (ip), vehicle: other
[12] = dose: 50.0 mg/kg/injection, schedule: Q01DX009 (ip), vehicle: saline with Tween-80
[13] = dose: 400.0 mg/kg/injection, schedule: Q04DX002 (ip), vehicle: saline with Tween-80
[14] = dose: 25.0 mg/kg/injection, schedule: Q01DX009 (ip), vehicle: distilled water + Tween-80
[15] = dose: 50.0 mg/kg/injection, schedule: Q01DX009 (ip), vehicle: distilled water + Tween-80
[16] = dose: 200.0 mg/kg/injection, schedule: Q01DX009 (ip), vehicle: distilled water + Tween-80
[17] = dose: 100.0 mg/kg/injection, schedule: Q01DX005 (ip), vehicle: Klucel (hydroxypropylcellulose) (HPC)
[18] = dose: 120.0 mg/kg/injection, schedule: Q01DX005 (ip), vehicle: saline with Tween-80
[19] = dose: 240.0 mg/kg/injection, schedule: Q01DX005 (ip), vehicle: saline with Tween-80

## CC12CCC3c4ccc(O)cc4CCC3C1CCC2(O)CN1CCCCC1 (stereo not drawn)
[1]
  survivor count: 0 of 6

## CCC(=O)c1c(C)oc2ccc(O)cc12
dose: 100.0 mg/kg/injection, schedule: Q04DX002 (ip), vehicle: Klucel (hydroxypropylcellulose) (HPC)
  survivor count: 6 of 6

## CCCC/C(C)=N/NC(=S)SC
[2]
  survivor count: 0 of 6
[3]
  survivor count: 1 of 6
[4]
  survivor count: 0 of 6

## CC(C)c1ccc(C2C3CCN2CC3)cc1 (stereo not drawn)
[3]
  survivor count: 0 of 6
[4]
  survivor count: 0 of 6

## O=C(N1CCCCC1Cc1ccccc1)C(Cl)(Cl)Cl (stereo not drawn)
[5]
  survivor count: 0 of 6
[6]
  survivor count: 0 of 6

## C/C(=N\NC(=S)N1CCCCCC1)c1nccs1
dose: 50.0 mg/kg/injection, schedule: Q01DX005 (ip), vehicle: saline with Tween-80
  survivor count: 2 of 6
dose: 100.0 mg/kg/injection, schedule: Q01DX005 (ip), vehicle: saline with Tween-80
  survivor count: 3 of 6
[7]
  survivor count: 0 of 6

## O=C1CCCC2=C1[Se]C1(O2)C(=O)CCCC1=O
[3]
  survivor count: 0 of 6
[4]
  survivor count: 0 of 6

## COc1cc(S(=O)(=O)O)ccc1N=N/C(=N\Nc1ccc(S(=O)(=O)O)cc1OC)C(N)=O
[8]
  survivor count: 6 of 6

## CC(C)c1ccc(O)c(=O)cc1
[9]
  survivor count: 0 of 6

## Cc1nc2sccn2c1C=O
dose: 200.0 mg/kg/injection, schedule: Q01DX001 (ip), vehicle: Klucel (hydroxypropylcellulose) (HPC)
  survivor count: 1 of 6
dose: 400.0 mg/kg/injection, schedule: Q01DX001 (ip), vehicle: Klucel (hydroxypropylcellulose) (HPC)
  survivor count: 0 of 6

## NNS(=O)(=O)c1cccc(S(=O)(=O)NN)c1
[10]
  survivor count: 5 of 6
[11]
  survivor count: 4 of 6

## CCOC(=O)c1ccc(NC(=O)O/N=C/c2ccncc2)cc1
[12]
  survivor count: 6 of 6

## Cc1ccc(NC(=O)CCCCC(C)NCC(O)c2ccc(O)c(O)c2)cc1 (stereo not drawn)
dose: 60.0 mg/kg/injection, schedule: Q01DX005 (ip), vehicle: saline
  T/C: 128 % of control
dose: 120.0 mg/kg/injection, schedule: Q01DX005 (ip), vehicle: saline
  T/C: 127 % of control
dose: 240.0 mg/kg/injection, schedule: Q01DX005 (ip), vehicle: saline
  survivor count: 0 of 6
dose: 400.0 mg/kg/injection, schedule: Q01DX001 (ip), vehicle: saline
  survivor count: 0 of 6

## NC(C[O-])C(=O)[O-].NCC(=O)[O-].[Mn+3] (stereo not drawn)
[13]
  survivor count: 6 of 6

## CC(/C=C/c1cccc(C)c1)=N\NC(N)=S
dose: 15.0 mg/kg/injection, schedule: Q01DX005 (ip), vehicle: Klucel (hydroxypropylcellulose) (HPC)
  T/C: 125 % of control
dose: 30.0 mg/kg/injection, schedule: Q01DX005 (ip), vehicle: Klucel (hydroxypropylcellulose) (HPC)
  survivor count: 5 of 6
dose: 60.0 mg/kg/injection, schedule: Q01DX005 (ip), vehicle: Klucel (hydroxypropylcellulose) (HPC)
  survivor count: 0 of 6
[5]
  survivor count: 0 of 6
[6]
  survivor count: 0 of 6

## COC(=O)C[CH2][Sn]([CH3])([CH3])[CH2]CC(=O)OC
[1]
  survivor count: 1 of 6

## CN(C)CCCN1c2ccccc2Cc2ccccc21
[7]
  survivor count: 2 of 6

## COc1cc2ccc(=O)oc2cc1O
dose: 400.0 mg/kg/injection, schedule: Q01DX009 (ip), vehicle: suspension in saline
  T/C: 130 % of control

## CNC(=O)OCc1c(COC(=O)NC)c(-c2ccc(Cl)cc2Cl)n2c1CCC2
dose: 12.5 mg/kg/injection, schedule: Q01DX009 (ip), vehicle: distilled water + Tween-80
  T/C: 132 % of control
[14]
  T/C: 138 % of control
[15]
  T/C: 148 % of control
[16]
  survivor count: 0 of 6

## O=C(N/N=C/c1cccnc1)C(=O)Nc1cccc(C(F)(F)F)c1
[8]
  survivor count: 6 of 6
[17]
  survivor count: 6 of 6
[1]
  survivor count: 6 of 6

## Cc1cccc2nccn12
[12]
  survivor count: 6 of 6
dose: 100.0 mg/kg/injection, schedule: Q01DX009 (ip), vehicle: saline with Tween-80
  survivor count: 0 of 6
[9]
  survivor count: 0 of 6

## CCCCCCCCCCCCCCCC[N+](C)(C)Cc1ccccc1
dose: 100.0 mg/kg/injection, schedule: Q04DX003 (ip), vehicle: saline
  survivor count: 0 of 6
dose: 200.0 mg/kg/injection, schedule: Q04DX003 (ip), vehicle: saline
  survivor count: 0 of 6
dose: 400.0 mg/kg/injection, schedule: Q04DX003 (ip), vehicle: saline
  survivor count: 0 of 6

## O=c1[nH]c(=O)n(C2CC(O)C(CS)O2)cc1F (stereo not drawn)
[8]
  T/C: 127 % of control
[17]
  T/C: 129 and 140 % of control

## CC(C)(C)N1COC2CCCCC21 (stereo not drawn)
[5]
  survivor count: 4 of 6

## CCOC(=O)c1cccc([N+](=O)[O-])c1C(=O)OCCN(CC)CC
[13]
  T/C: 137 % of control

## COC(=O)c1c2cc(C(C)(C)C)cc-2c(N(C)C)nc(N(C)C)c1C(=O)OC
[6]
  survivor count: 6 of 6

## CSc1nccnn1
[2]
  survivor count: 2 of 6
[3]
  survivor count: 0 of 6
[4]
  survivor count: 0 of 6

## COC(=O)C(NP(=O)(NC(C(=O)OC)c1ccccc1)N(CCCl)CCCl)c1ccccc1 (stereo not drawn)
dose: 60.0 mg/kg/injection, schedule: Q01DX005 (ip), vehicle: saline with Tween-80
  survivor count: 6 of 6
[18]
  survivor count: 6 of 6
[19]
  survivor count: 6 of 6

## CNCCNc1ccc(NCCNC)c2c1C(=O)c1ccccc1C2=O
[14]
  survivor count: 6 of 6
dose: 32.0 mg/kg/injection, schedule: Q01DX009 (ip), vehicle: acid diluted with saline
  survivor count: 8 of 8
[15]
  survivor count: 0 of 6
dose: 100.0 mg/kg/injection, schedule: Q01DX009 (ip), vehicle: distilled water + Tween-80
  survivor count: 0 of 6
[16]
  survivor count: 0 of 6

## NC(=O)C1C=CN(Cc2ccccc2)C=C1
[18]
  T/C: 130 % of control
[19]
  survivor count: 2 of 6

## CC(C)Cn1c(Cl)c(/C=N\Nc2ccc([N+](=O)[O-])cc2)c2ccccc21
dose: 6.25 mg/kg/injection, schedule: Q01DX001 (ip), vehicle: saline with Tween-80
  survivor count: 6 of 6
dose: 12.5 mg/kg/injection, schedule: Q01DX001 (ip), vehicle: saline with Tween-80
  survivor count: 6 of 6
dose: 25.0 mg/kg/injection, schedule: Q01DX001 (ip), vehicle: saline with Tween-80
  survivor count: 6 of 6

## NC(=NCc1ccccc1)c1ccc(N=C(N)c2ccc(C(N)=Nc3ccc(C(N)=NCc4ccccc4)cc3)cc2)cc1
dose: 10.0 mg/kg/injection, schedule: Q01DX009 (ip), vehicle: saline sonified
  T/C: 136 % of control
dose: 15.0 mg/kg/injection, schedule: Q01DX009 (ip), vehicle: saline
  T/C: 136 % of control
dose: 20.0 mg/kg/injection, schedule: Q01DX009 (ip), vehicle: saline sonified
  survivor count: 0 of 6
dose: 40.0 mg/kg/injection, schedule: Q04DX003 (ip), vehicle: saline with Tween-80
  survivor count: 0 of 6

## CC(/C=N\Nc1ccc(Cl)c(Cl)c1)=N/NC(=O)C[n+]1ccccc1
dose: 200.0 mg/kg/injection, schedule: Q04DX002 (ip), vehicle: saline
  survivor count: 6 of 6
dose: 400.0 mg/kg/injection, schedule: Q04DX002 (ip), vehicle: saline
  survivor count: 0 of 6

## CCCCCCCCCCCCCCCC(=O)N(CC#CCN(CCCN(C)C)C(=O)CCCCCCCCCCCCCCC)CCCN(C)C
[10]
  survivor count: 0 of 6
[11]
  survivor count: 0 of 6
dose: 400.0 mg/kg/injection, schedule: Q01DX009 (ip), vehicle: other
  survivor count: 0 of 6

## O=C(O)c1ccc(N=NC2Sc3nc4ccccc4n3C2=O)cc1 (stereo not drawn)
[6]
  survivor count: 6 of 6
